Results: article PMC10010608
No constants are given. Whether binding was seen depends on the method and setting. In cells and extracts the contact can be indirect. A result given as binding can be weak or reduced; the word gives no strength. Where a sequence is shown, tags or fusion partners need not be part of it.

Columns and labels:
[1] = target: nLUC-OsDES1 (rice (Oryza sativa L.)); assay: split reporter; split luciferase complementation; nLUC-OsDES1 and cLUC-LOG co-expressed in N. benthamiana leaves; luciferase activity tested 24 h after infiltration
[2] = target: GFP-OsDES1 (rice (Oryza sativa L.)); assay: co-IP; 35S:GFP-OsDES1 (or 35S:GFP) and 35S:Myc-LOG co-expressed in N. benthamiana; total protein extract incubated with GFP-Trap A agarose beads 60 min at 4 °C; immunoblot with anti-Myc and anti-GFP

binding [1] | binding [2] | Binder
binds | – | cLUC-LOG (enzyme, UniProt Q5ZC82 1-242) MAMEAAAERSAGAGAAATAAPESGGGGAGERRSRFRRICVYCGSAKGRKASYQDAAVELGKELVERGIDLVYGGGSIGLMGLVSHAVHDGGRHVIGVIPKSLMPREVTGEPVGEVRAVSGMHERKAEMARFADAFIALPGGYGTLEELLEVITWAQLGIHKKPVGLLNVDGFYDPFLSFIDMAVSEGFIAEDARRIIISAPTARELVLKLEEYVPEYEVGLVWDDQMPHSFAPDLETRITSS
– | binds | Myc-LOG (enzyme, UniProt Q5ZC82 1-242) MAMEAAAERSAGAGAAATAAPESGGGGAGERRSRFRRICVYCGSAKGRKASYQDAAVELGKELVERGIDLVYGGGSIGLMGLVSHAVHDGGRHVIGVIPKSLMPREVTGEPVGEVRAVSGMHERKAEMARFADAFIALPGGYGTLEELLEVITWAQLGIHKKPVGLLNVDGFYDPFLSFIDMAVSEGFIAEDARRIIISAPTARELVLKLEEYVPEYEVGLVWDDQMPHSFAPDLETRITSS
